Source: patent US9820957B2, “Methods of treating autoimmunity” (IM Therapeutics, Inc., priority 2016, dated 2017)
At least one read-out could not be matched to a standard name with certainty.

Assay: Oral pharmacokinetics in HLA-DQ8 transgenic mice, plasma by HPLC-MS
Format: in vivo
Conditions: oral gavage, 4 mg; plasma at baseline, 1, 2, 4, 6 and 18 hours
Experimental: Separate cohorts of HLA-DQ8 transgenic mice (n=2) were gavaged with a specific dose of L- and D-α-methyldopa, followed by the collection of plasma 90 minutes later. […] Similarly, separate cohorts of mice (n=3) were gavaged with a specific enantiomer (D or L enantiomer) and dose (4 mg by gavage) of α-methyldopa followed by the collection of plasma at baseline, 1, 2, 4, 6, and 18 hours later. […] In these PK studies the Lower Limit of Quantification (LLOQ) was <2.5 ng/ml. Results are presented as mean+/− SEM.

SMILES | bioavailability compared between the enantiomers
C[C@@](N)(Cc1ccc(O)c(O)c1)C(=O)O [D-α-methyldopa, D-α-Methyl-3,4-dihydroxyphenylalanine] | nearly identical
C[C@](N)(Cc1ccc(O)c(O)c1)C(=O)O [L-α-methyldopa, L-α-Methyl-3,4-dihydroxyphenylalanine, reference compound] | nearly identical
